The other results are listed elsewhere or left out. Repeats are few or missing, and single values can be far off.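 Imaging used 1,536-well plates; nuclei positive for cleaved PARP by antibody were divided by total DNA-stained nuclei to yield the apoptosis fraction. Doses for screening kept most cells viable, and cell lines differ markedly in resting and induced cleaved-PARP levels.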
How the values were obtained:
Test in all cases: cleaved PARP positive nuclei fraction relative to DMSO control; melanoma cells; higher = more apoptosis
Conditions in all cases: library dose: low library concentration; 72 h
[1] = tested on: WM115
[2] = tested on: WM1716
[3] = tested on: WM1745
[4] = tested on: WM3526
[5] = tested on: WM3619
[6] = tested on: WM451Lu

SMILES | cleaved PARP positive nuclei fraction [1] | cleaved PARP positive nuclei fraction [2] | cleaved PARP positive nuclei fraction [3] | cleaved PARP positive nuclei fraction [4] | cleaved PARP positive nuclei fraction [5] | cleaved PARP positive nuclei fraction [6]
CCN(CC)CCNC(=O)c1c(C)[nH]c(/C=C2\C(=O)Nc3ccc(F)cc32)c1C [sunitinib] + CC(=O)O[C@@]12CO[C@@H]1C[C@H](O)[C@@]1(C)C(=O)[C@H](O)C3=C(C)[C@@H](OC(=O)[C@H](O)[C@@H](NC(=O)OC(C)(C)C)c4ccccc4)C[C@@](O)([C@@H](OC(=O)c4ccccc4)[C@H]21)C3(C)C [Docetaxel] (first compound 0.4 µM, partner dose 0.0001 µM) | 252% | 111% | 138% | 333% | 100% | 89.8%
Cn1sc(=O)n(Cc2ccccc2)c1=O + NC(=O)Nc1cc(-c2cccc(F)c2)sc1C(=O)N[C@H]1CCCNC1 [AZD7762] (first compound 0.4 µM, partner dose 0.02 µM) | 133% | 88% | 83.8% | 246% | 223% | 78.4%
Cn1cnc2c(F)c(Nc3ccc(Br)cc3Cl)c(C(=O)NOCCO)cc21 [selumetinib] + N#Cc1c(O)c2c(-c3ccc(-c4ccccc4O)cc3)csc2[nH]c1=O [A769662] (first compound 0.015 µM, partner dose 2 µM) | 114% | 47.1% | 89.9% | 89.2% | 108% | 131%
CC(=O)O[C@@]12CO[C@@H]1C[C@H](O)[C@@]1(C)C(=O)[C@H](O)C3=C(C)[C@@H](OC(=O)[C@H](O)[C@@H](NC(=O)OC(C)(C)C)c4ccccc4)C[C@@](O)([C@@H](OC(=O)c4ccccc4)[C@H]21)C3(C)C [Docetaxel] + CNC(=O)c1cc(Oc2ccc(NC(=O)Nc3ccc(Cl)c(C(F)(F)F)c3)cc2)ccn1 [sorafenib] (first compound 0.0001 µM, partner dose 0.4 µM) | 460% | 631% | 178% | 211% | 182% | 69.4%
CN(c1ncccc1CNc1nc(Nc2ccc3c(c2)CC(=O)N3)ncc1C(F)(F)F)S(C)(=O)=O + Cn1cncc1[C@@](N)(c1ccc(Cl)cc1)c1ccc2c(c1)c(-c1cccc(Cl)c1)cc(=O)n2C [tipifarnib] (first compound 0.08 µM, partner dose 0.01 µM) | 131% | 124% | 104% | 197% | 107% | 118%
COc1ccc(C2=N[C@@H](c3ccc(Cl)cc3)[C@@H](c3ccc(Cl)cc3)N2C(=O)N2CCNC(=O)C2)c(OC(C)C)c1 [Nutlin-3] + CC(C)(C)c1cnc(CSc2cnc(NC(=O)C3CCNCC3)s2)o1 [SNS-032] (first compound 0.1 µM, partner dose 0.01 µM) | 95.8% | 58.6% | 214% | 31.5% | 217% | 144%
Cn1sc(=O)n(Cc2ccccc2)c1=O + CN1CCN(c2ccc3nc(-c4c(N)c5c(F)cccc5[nH]c4=O)[nH]c3c2)CC1 [Dovitinib] (first compound 0.4 µM, partner dose 0.1 µM) | 126% | 32.5% | 83.4% | 226% | 75.8% | 100%
C[C@@H](N)c1ccc(C(=O)Nc2ccnc3[nH]ccc23)cc1 + CCc1ccc(CCOc2ccc(CC3SC(=O)NC3=O)cc2)nc1 [pioglitazone] (first compound 0.4 µM, partner dose 2 µM) | 74.6% | 267% | 108% | 66% | 120% | 79.7%
CC1(C)CCC(c2ccc(Cl)cc2)=C(CN2CCN(c3ccc(C(=O)NS(=O)(=O)c4ccc(N[C@H](CCN5CCOCC5)CSc5ccccc5)c(S(=O)(=O)C(F)(F)F)c4)cc3)CC2)C1 + COc1ccc(C2=N[C@@H](c3ccc(Cl)cc3)[C@@H](c3ccc(Cl)cc3)N2C(=O)N2CCNC(=O)C2)c(OC(C)C)c1 [Nutlin-3] (first compound 0.4 µM, partner dose 0.1 µM) | 475% | 82.8% | 860% | 127% | 104% | 134%
C[C@@H](N)c1ccc(C(=O)Nc2ccnc3[nH]ccc23)cc1 + O=c1cc(-c2cccc3c2Sc2ccccc2S3)oc(N2CCOCC2)c1 [KU55933] (first compound 0.4 µM, partner dose 1 µM) | 207% | 425% | 98.2% | 64.5% | 97.1% | 69.5%
CS(=O)(=O)c1ccc(C(=O)Nc2ccc(Cl)c(-c3ccccn3)c2)c(Cl)c1 [vismodegib] + CS(=O)(=O)CCNCc1ccc(-c2ccc3ncnc(Nc4ccc(OCc5cccc(F)c5)c(Cl)c4)c3c2)o1 [lapatinib] (first compound 1 µM, partner dose 0.8 µM) | 96.6% | 79.4% | 96.6% | 124% | 96.2% | 43%
NC1(c2ccc(-c3nc4ccn5c(=O)[nH]nc5c4cc3-c3ccccc3)cc2)CCC1 + Oc1nc(-c2ccc(C(F)(F)F)cc2)nc2c1CSCC2 [XAV939] (first compound 0.4 µM, partner dose 2 µM) | 138% | 346% | 102% | 70.8% | 111% | 107%

Single records (already shown):
CN(c1ncccc1CNc1nc(Nc2ccc3c(c2)CC(=O)N3)ncc1C(F)(F)F)S(C)(=O)=O + Cn1cncc1[C@@](N)(c1ccc(Cl)cc1)c1ccc2c(c1)c(-c1cccc(Cl)c1)cc(=O)n2C [tipifarnib] (first compound 0.08 µM, partner dose 0.01 µM) in the list: cleaved PARP positive nuclei fraction [1]: 131%; cleaved PARP positive nuclei fraction [2]: 124%; cleaved PARP positive nuclei fraction [3]: 104%; cleaved PARP positive nuclei fraction [4]: 197%; cleaved PARP positive nuclei fraction [5]: 107%; cleaved PARP positive nuclei fraction [6]: 118%
CC(=O)O[C@@]12CO[C@@H]1C[C@H](O)[C@@]1(C)C(=O)[C@H](O)C3=C(C)[C@@H](OC(=O)[C@H](O)[C@@H](NC(=O)OC(C)(C)C)c4ccccc4)C[C@@](O)([C@@H](OC(=O)c4ccccc4)[C@H]21)C3(C)C [Docetaxel] + CNC(=O)c1cc(Oc2ccc(NC(=O)Nc3ccc(Cl)c(C(F)(F)F)c3)cc2)ccn1 [sorafenib] (first compound 0.0001 µM, partner dose 0.4 µM) in the list: cleaved PARP positive nuclei fraction [1]: 460%; cleaved PARP positive nuclei fraction [2]: 631%; cleaved PARP positive nuclei fraction [3]: 178%; cleaved PARP positive nuclei fraction [4]: 211%; cleaved PARP positive nuclei fraction [5]: 182%; cleaved PARP positive nuclei fraction [6]: 69.4%

From the supplement of paper PMC4604168 (melanoma cell lines)
